## Primary screen of a compound library

Protein sequences, listed by entry. Tags and fused reporters are not part of them.
UniProt E9BF75, entry or part of it: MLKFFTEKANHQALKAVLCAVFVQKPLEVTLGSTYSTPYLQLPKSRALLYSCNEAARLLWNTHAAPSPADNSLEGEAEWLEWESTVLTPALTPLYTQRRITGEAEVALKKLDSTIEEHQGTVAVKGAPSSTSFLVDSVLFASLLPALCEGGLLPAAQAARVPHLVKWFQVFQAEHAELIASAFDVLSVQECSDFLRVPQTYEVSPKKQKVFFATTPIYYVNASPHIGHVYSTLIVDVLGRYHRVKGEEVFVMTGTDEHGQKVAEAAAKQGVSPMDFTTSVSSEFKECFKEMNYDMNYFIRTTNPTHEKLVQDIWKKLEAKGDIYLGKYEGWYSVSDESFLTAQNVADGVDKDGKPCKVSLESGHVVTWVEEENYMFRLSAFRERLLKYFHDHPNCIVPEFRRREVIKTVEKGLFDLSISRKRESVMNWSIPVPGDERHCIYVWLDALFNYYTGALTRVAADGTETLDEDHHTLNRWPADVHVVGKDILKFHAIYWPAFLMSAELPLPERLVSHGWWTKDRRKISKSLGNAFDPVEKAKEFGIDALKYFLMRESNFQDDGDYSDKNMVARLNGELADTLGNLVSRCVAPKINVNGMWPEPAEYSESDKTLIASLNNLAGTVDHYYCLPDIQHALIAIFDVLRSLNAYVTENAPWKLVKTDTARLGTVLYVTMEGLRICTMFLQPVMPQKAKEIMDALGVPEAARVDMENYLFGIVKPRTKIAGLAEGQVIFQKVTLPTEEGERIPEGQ

Measurements from “University of Dundee, Small-Polar-MMV Screening Library” (2021), ChEMBL document CHEMBL3988442.

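Methionyl-tRNA synthetase (putative), Leishmania donovani (UniProt E9BF75). Primary screen of methionyl-tRNA synthetase; the read-out is not stated. The test concentration is not given. The values are filed as inhibition. Size under these conditions: about 68,000 compounds, about 24 of them at 50% or above in at least one test.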

Results are percentages, as filed.
The controls that fix the scale are not given in the record; negative values are as filed.
The compounds are a random part of those screened.

- CCN(CCNS(=O)(=O)N1CCOCC1)C(=O)OC(C)(C)C | 3.081%
- CC(C)CNC(=O)c1ccc(NC(=O)NCC2CC2)cc1Cl | 19.78%
- O=C(Nc1ccc(-c2ccn[nH]2)cc1)C1CCCN(Cc2ccoc2)C1 (configuration not stated) | 4.032%
- Cn1nnnc1SCCNC1CCN(c2ccc3c(c2)OCO3)CC1 | 11.38%
- CCN1CCN(C2CCN(Cc3nc(C)c(C)o3)CC2)C1=O | 18.31%
- Cc1cccc(N2CCN(CCC(=O)NCc3ccc(C)s3)CC2)c1 | 4.013%
- O=C(CN1C(=O)CCC1=O)N1CCOC2(CCOCC2)C1 | 1.863%
- COc1cc(C)nc(N2CCN(C(=O)CN(C)C(C)C)CC2)n1 | 0.5263%
- CC(C)(C)n1nnnc1CN(Cc1ccccc1)Cc1ccc(Cl)cc1 | 26.58%
- Cc1ccc(-c2noc(CN3CCCC(Cn4cncn4)C3)n2)cc1 (configuration not stated) | 15.49%
- Cc1cc(CN2C[C@@H]3COC[C@]3(CNC(=O)c3ccsc3)C2)no1 | 2.614%
- Cc1cc(NC(=O)NCc2cccnc2OC2CCCC2)n(C)n1 | 21.49%
- COc1ccccc1N1CCN(C(=O)Cn2nc(C)c(C)c2C)C(C)C1 (configuration not stated) | 10.43%
- CN1CCN2C(=O)N(C3CCOCC3)C[C@H]2C1 | 4.511%
- O=c1cc(CNCc2ccc3c(c2)OCO3)nc2ccc(Br)cn12 | -17.2%
- Cn1cnc(-c2nc(C(=O)NCC3CCCO3)c3ccccn23)c1 (configuration not stated) | 18.49%
- CN1C[C@@H](C(=O)NC(C)(C)C)[C@@]2(CCc3ccccc3C(=O)N2)C1 | 17.46%
- CN1N=C(c2nc(Cc3cccc(Br)c3)no2)CCC1=O | 11.96%
- CCOCc1nnc(NCc2cccc(C)c2)o1 | 12.11%
- Cc1ccc(-c2ccnc3cc(CC(=O)N4CCN(C)CC4)nn23)cc1 | 14.32%
- FC(F)COc1ccccc1NCc1nnsc1Cl | 14.78%
- Cc1[nH]ccc1C(=O)Nc1cccc(CN2CCC(CO)CC2)c1 | 7.746%
- CNc1nc(C2CCCN2C(C)=O)nc2c1CN(CCO)CC2 (configuration not stated) | 11.06%
- CC1CN(Cc2cccc(CNC3CCCC3)c2)CCO1 (configuration not stated) | 10.45%
- Cc1ncsc1C(=O)N1CCCCC1c1cc2nc(C)c(C)c(O)n2n1 (configuration not stated) | 22.15%
- O=C(Cn1cc(C(=O)O)ccc1=O)Nc1ccc(Cl)cc1F | 11.2%
- NC1CCN(C(=O)c2cnc(Cc3c(Cl)cccc3Cl)nc2O)C1 (configuration not stated) | 10.65%
- CC1(C)CC(C(=O)N2CCC3(CCC(=O)N(C4CC4)C3)CC2)CCO1 (configuration not stated) | 11.18%
- COc1cc(OC)c(-c2nc3c([nH]2)c(C2CC2)nn3C)cc1OC | 11.56%
- CS(=O)(=O)c1ncc(CN2CCCC(C(N)=O)C2)n1CC1CCCCC1 (configuration not stated) | 11.61%
- Cc1cnc2n(c1=O)C(CC(=O)NCc1cccs1)CS2 (configuration not stated) | 10.14%
- O=S(=O)(c1cncc(F)c1)N1CCSC2(CCCCC2)C1 | 18.87%
- CCN1CC2(CC1=O)CN(C(=O)NC(C)C)CCN(C(=O)C(C)C)C2 (configuration not stated) | 8.791%
- CC(COc1ccccc1F)NC(=O)N[C@@H]1C=C[C@H](CO)C1 (some centres not stated) | 11.87%
- CC(=O)N(Cc1noc(C2CC2)n1)C1CCN(Cc2nccn2C)C1 (configuration not stated) | 7.302%
- Cc1ccc(CNc2ccc(C(=O)N3CCNC(=O)C3)cn2)cc1 | 14.66%
- Cc1nccn1-c1cc(CNC(=O)C2CCC(=O)NC2)ccn1 (configuration not stated) | 17.06%
- CCCOc1cc(C)ccc1NC(=O)N(C)Cc1cnn(C)c1 | 14.42%
- CC(=O)N1CCN(C(=O)NC(C)C)CC2(CC(=O)N(C)C2)C1 (configuration not stated) | 18.73%
- CCc1nc(N2CCN(c3ncccn3)CC2)c2cnn(C)c2n1 | 6.65%
- Cn1c(C(=O)NC2CCCC2)nc2c1CCN(Cc1ccccc1)C2 | 18.25%
- CC(C)c1nc(C2CCCN(C(=O)c3ccc4c(c3)COC4)C2)no1 (configuration not stated) | 13.66%
- NC(=O)C1CCCN1CCCc1ccc(C(F)(F)F)cc1 (configuration not stated) | 5.108%

4 of the entries, repeated:

compound	inhibition
CC(C)CNC(=O)c1ccc(NC(=O)NCC2CC2)cc1Cl	19.78
CC1CN(Cc2cccc(CNC3CCCC3)c2)CCO1 (configuration not stated)	10.45
CCN1CCN(C2CCN(Cc3nc(C)c(C)o3)CC2)C1=O	18.31
CC1(C)CC(C(=O)N2CCC3(CCC(=O)N(C4CC4)C3)CC2)CCO1 (configuration not stated)	11.18